Measurements published in PubChem BioAssay AID1794845 (National Center for Advancing Translational Sciences (NCATS), 2023).
Screen size: about 6,900 compounds; fewer than 10 were called active. Calls follow the shape of the dose curve; as a rule, active = well fitted curve in the direction sought with a large enough effect; inconclusive = small, poorly fitted or top-dose-only effect, or another doubt; inactive = no such curve, though single readings can be large or run the other way. The list shows a part of the results.

The chains behind the UniProt entries cited, without tags or fusion partners. Where a name states a change or a piece, a line headed by the entry shows the natural chain unless it says otherwise.
UniProt C7C422: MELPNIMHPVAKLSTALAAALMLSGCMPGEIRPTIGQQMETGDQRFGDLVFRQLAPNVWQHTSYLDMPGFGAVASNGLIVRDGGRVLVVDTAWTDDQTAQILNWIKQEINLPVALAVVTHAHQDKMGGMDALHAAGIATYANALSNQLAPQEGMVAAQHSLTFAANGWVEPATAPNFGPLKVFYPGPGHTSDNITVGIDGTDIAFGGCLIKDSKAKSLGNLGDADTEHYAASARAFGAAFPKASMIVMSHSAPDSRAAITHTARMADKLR

Biological target: Metallo-beta-lactamase type 2 (Klebsiella pneumoniae) (UniProt C7C422)
Test: qHTS to identify inhibitors of the New Delhi Metallo-beta-lactamase (NDM): primary screen against the NCATS Gemini Collection; also: % of control where 0% means no effect
Settings: NDM-1 enzyme, meropenem hydrolysis, absorbance 300 nm; at 38.4 µM (top of the series) unless noted
Method in brief: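 NDM-1 at 2 nM final in 50 mM HEPES pH 7.0, 1 uM ZnSO4, 0.01% Tween20, preincubated >30 min with compound. Meropenem 50 uM final added; absorbance at 300 nm after 30 min.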

Activity % (negative = inhibition), inactive:
Cc1nc(N2CCC(NC(=O)c3sccc3C)CC2)cc(C(F)(F)F)n1 10.5%, O=C(c1ccoc1)N1CCCC(n2cc(-c3nc(C4CC4)no3)nn2)C1 (stereo not drawn) 1.24%, COCCN1CCC(C(=O)N2CCn3nc(Cc4ccccc4)cc3C2)C1 (stereo not drawn) -1.03%, COC(=O)CNC(=O)c1cc(-c2cccnc2)c2nncn2n1 14.3%, Cc1ccc(CN2C(=O)OC(c3cccc(NC(=O)c4ccc(F)cc4)c3)C2C(=O)NC2CC2)cc1 (stereo not drawn) 81.1%, NC(=O)[C@H]1C[C@@H](O)[C@H](O)[C@H]2[C@@H]1SC(=Nc1ccc(Cl)cc1)N2CC1CCCCC1 1.94%, CCOCCOc1cccc(C(=O)N2C[C@@H](N(C)C)[C@H](C(C)C)C2)c1 58.5%, O=C(c1ccccc1F)N1CC2(C1)C(=O)Nc1ccccc12 -0.528% [at 57.5 µM], CC1(COCC2CC2)COc2ccc(C(=O)Nc3cccc([S+](C)(=O)[O-])c3)cc2N1 (stereo not drawn) -0.683% [at 57.5 µM], COc1ccc(O[C@H]2COCCN(C(=O)C3CCCC3)C2)cc1 19.2% [at 57.5 µM], COCCN1C(=O)c2ccccc2C(C(=O)NCc2ccc(Cl)cc2)C12CCCC2 (stereo not drawn) 3.33%, Cc1nn2c(c1-c1ccccc1N1CCCC1)N(C(=O)C1CCOCC1)CCC2 16.9% [at 57.5 µM], O=C(C1CCOC1)N1CCC(C(=O)O)(n2ccc(-c3ccco3)n2)CC1 (stereo not drawn) 45.8%, CC(=O)NC(CO)C(=O)N1CCc2c(nc(-c3cccnc3)nc2N(C)C)C1 (stereo not drawn) 12.6%, O=C(c1ccoc1)N1CCC(Nc2cccnc2)C1 (stereo not drawn) -0.493%, CC(C)C(=O)N1CCC2(CCCCO2)CC1 -3.79%, Cc1ccsc1-c1[nH]nc2ncc(-c3ccccc3O)nc12 34.1% [at 57.5 µM], CN(C(=O)c1ccc2oc(Cc3ccc(Cl)cc3)nc2c1)[C@H]1COC[C@@H]1O 0.285%, COC[C@H]1NC(=O)CC[C@H]1C(=O)NC1CCN(Cc2ccccc2)CC1 2.52%, O=C(O)C1CCc2nnc(C3CCN(C(=O)c4ccccc4)C3)n21 (stereo not drawn) 0.485%, CCn1ncc(CN2CCCCCCNC(=O)[C@@H]3CCC[C@@H]32)c1C -6.9%, O=C1Nc2ccccc2C12CN(Cc1ccc(C(F)(F)F)cc1)C2 -2.37%, N[C@H]1CN(c2cncc(C(=O)N3CCCCC3)n2)C[C@@H]1C1CC1 0.523%, COC(=O)[C@H](CC1CCCCC1)NC(=O)[C@@H]1C[C@@H](NC(=O)Nc2cccc(F)c2)CCN1C(=O)CCC(=O)O -4.66%, COCCNC(=O)[C@@H](C)C1CCc2c(C)cc(OC)c(C)c2[C@@H]1O (stereo partly drawn) 16.1% [at 57.5 µM], COC1CCC12CCN(Cc1ccc(F)c(F)c1)CC2 (stereo not drawn) 2%, N#Cc1ccc(CN2CCC(N3CCOC3=O)CC2)cc1 22.7% [at 57.5 µM], Cc1ccc(-c2nc(CNS(=O)(=O)C3CC3)[nH]c2-c2ccccn2)cc1 88.7%, CN(C)CCN1CC2(CCCN(C(=O)CCCn3cnnn3)C2)CCC1=O (stereo not drawn) -2.94%, COCCn1cnc2ccc(-c3cccc(O)c3)nc2c1=O 14.4% [at 57.5 µM], Cc1cc(CN(C)Cc2ccc(F)cc2)no1 1.41% [at 57.5 µM], O=C(NCc1ccccc1C(F)(F)F)c1cccc2c1CCN2C(=O)C1CC1 -0.326%, COCCN1CCCC2(CCN(C(=O)CCn3cncn3)C2)C1=O (stereo not drawn) 4.91%, O=C(Nc1ccc(C(F)(F)F)cc1)N[C@@H]1C[C@H](CO)[C@@H](O)[C@H]1O 0.876% [at 57.5 µM], Cc1cnc(CCNC(=O)C2(c3ccccc3)CC2)n1Cc1ccccc1 -2.54%, CSCC[C@@H]1NC(=O)c2cc(NC(=O)c3cc(-c4ccccn4)n[nH]3)ccc2NC1=O 7.17%, CCc1nc(NC(CCn2cncn2)c2ccccc2)c2cnn(C)c2n1 (stereo not drawn) 8.7%, O=C1NC2(CCN(Cc3ccccc3)C2)COc2ccccc21 (stereo not drawn) 18.5% [at 57.5 µM], COc1ccc(-n2c(CN)n[nH]c2=O)cc1OC 63.8%, CCCn1c(C)cnc1CC1CCN(S(=O)(=O)CCC)CC1 4.77%, CC(C)Cc1cc(C(=O)N2C[C@H](C3CC3)[C@@H](N)C2)n(C)n1 4.15%, Cc1nnnn1-c1cccc(C(=O)N2CCCC(O)(CN(C)C)CC2)c1 (stereo not drawn) -11.5%, O=C(NCc1ccncc1)C1c2ccccc2C(=O)N(C2CCCC2)C12CCCCC2 (stereo not drawn) 35.4%, Cn1c(CNC(=O)C2(C)CCCCC(=O)N2)nc2ccccc21 (stereo not drawn) 9.51%, c1ccc(Cc2nnc([C@H]3CCN(CC4CCCCC4)C3)o2)cc1 -0.624% [at 57.5 µM], CCn1nccc1C(=O)N1C[C@@H]2CCCN3CCC[C@@H]([C@H]23)[C@H]1CCCC(=O)NC 11.5%, Cc1cccc([S+](=O)([O-])N2CCC3(CC2)OCCN(CC2CC2)C3=O)c1 3.19% [at 57.5 µM], CCCNC(=O)N[C@@H]1CCC[C@@H](C(=O)N(CC)CC)CC(=O)N(C)C1 7.22% [at 57.5 µM], Cc1ccc(S(N)(=O)=O)cc1C(=O)N1CCCn2nc(C(C)O)cc2C1 (stereo not drawn) 16.2%, CCNC(=O)N1CCOc2ccc(CN3CCOCC3)cc2C1 -1.24%, O=C(CCc1nc2ccccc2[nH]1)N1CCC(c2nc(CCOCC3CC3)no2)C1 (stereo not drawn) -5.96%, COc1ccc(C(=O)N2CCCC(n3cc(-c4nc(C5CC5)no4)nn3)C2)cn1 (stereo not drawn) -1.63%, O=C(CC1CCN(C(=O)c2cc(F)ccc2F)C1)NC1CC1 (stereo not drawn) -1.08%, O=C(O)C1(c2ccccc2)CCN(S(=O)(=O)c2cccs2)CC1 16.8%, Cc1nn(C)c(C)c1S(=O)(=O)N1CCC(c2noc(C3CC3)n2)C1 (stereo not drawn) 0.821%, C[C@H]1[C@@H]2[C@H]3OC(=O)[C@@H](C)[C@@H]3CC[C@@]2(C)CC[C@@H]1NC(=O)Cc1ccccc1 7.32% [at 57.5 µM], COCc1nnc(C2CC3(CCN(C(=O)c4cccc(C)c4)CC3)CN2C)o1 (stereo not drawn) -3.02%, COc1ccc(N2CCOC3CCN(Cc4ccc(C(C)C)cc4)CC3C2=O)cc1 (stereo not drawn) -1.15% [at 57.5 µM], O=c1n(CC2CC2)c2cccnc2n1[C@H]1CCCN(S(=O)(=O)c2cccnc2)C1 8.6%, Cc1nc(N2CCC(NCCc3n[nH]c(=O)[nH]3)CC2)c2ccsc2n1 -0.17%, CS(=O)(=O)N[C@H]1C[C@H]2C(=O)NC[C@@H](CCC(=O)N3CCCCC3)N2C1 22.8% [at 57.5 µM], O=C(c1ccncc1)N1CC(c2nc(CCc3ccccc3)no2)C1 59.2%, Cc1cccc(-c2noc(CCC(=O)N[C@H]3CC[C@H]3NC3CCCC3)n2)c1 9.99%, Cc1nc([C@@H]2CN(C(=O)c3cccc(C#N)c3)C[C@H]2C(N)=O)n[nH]1 1.2%, Cc1ccc(C2Cn3nnc(C(=O)N4CCC(C(=O)NCCc5ccccc5)CC4)c3CO2)cc1 (stereo not drawn) 44.3%, O=C(c1ccc(-c2cncnc2)cc1)N1CCC(N[S+](=O)([O-])c2cccc(C(F)(F)F)c2)CC1 -0.677%, COc1ccc(CNC[C@H]2O[C@H](Cc3cc(COc4ccccc4)on3)CC[C@@H]2O)cc1 -9.57%, Cc1ccc(CN2CCC(C(=O)N3CCCCCCNC(=O)CC3)CC2)s1 6.72%, Cc1nnc([C@H]2CCN(Cc3cnc4ccccc4c3)C2)o1 7.31% [at 57.5 µM], Cc1ccc(NC(=O)N2CCC(CCNC(=O)CC3CCCC3)CC2)cc1F 3.54%, COCCC1(NC(=O)c2ccoc2)CCN(CC2CC2)CC1 -0.904%, O=C(NC1CCCCC1)N1CCC(Cc2nc(-c3ccccc3)n[nH]2)C1 (stereo not drawn) -0.103%, N#Cc1cccc(-c2cn3c(n2)N(C(=O)c2ccsc2)CCC3)c1 12.4%, O=[S+]1([O-])N(Cc2ccccc2)C[C@@H](O)[C@]12CCN(Cc1ccc(C(F)(F)F)nc1)C2 -1.41%, Cn1nccc1C(=O)N1CCC(N2CC(OCC3CC3)C23CCOCC3)CC1 (stereo not drawn) -1.15%, CC1=C[C@@H](CNC(=O)CC(C)(C)C)[C@H](C(C)C)C[C@H]1CC(=O)NC1CCCC1 -1.26% [at 57.5 µM], O=C1CC(NS(=O)(=O)N2CCCC2)CN1Cc1ccc(F)cc1 (stereo not drawn) 0.157%, Cc1ccc(-c2nnc(C3CN(C(=O)c4ccnn4C)CC34CCOCC4)o2)cc1 (stereo not drawn) 1.72%, COc1ccccc1-c1cc(C(=O)N2CCOCC2)nc2c1cnn2C -3.82%, C=CCOc1cccc(-c2nnc(CCC(=O)NCc3ccccc3)c(=O)[nH]2)c1 16.7%, COc1ccc(CN2C[C@@H](CO)[C@H](c3ccncc3)C2)c(OC)c1 3.35%, COc1ccc(-n2ncc3c2CC(C)(C)CC3NC(=O)c2cc(C)[nH]n2)cc1 (stereo not drawn) -0.397%, O=C(CC(c1ccccc1)c1ccccc1F)N1CCN(c2ccncc2)CC1 (stereo not drawn) 9.16%
